Laboratory results: patent publication US10525115B2 (Immatics Biotechnologies GmbH, priority 2014, dated 2020)

What was measured:
Parameters in all cases: species or system human
[1] = test system: primary AML samples; assay: HLA class II ligandome analysis (LC-MS/MS) of primary AML samples; settings: for Number of positive AMLs: HLA class II ligandome; for Number of positive AMLs / rep. frequency in AMLs: AML patients n=12
[2] = test system: cancer tissues in comparison to non-cancerous tissues and organs; assay: Presentation profile / over-presentation by label-free LC-MS (XPRESIDENT), tumor versus normal tissues, other proliferative diseases; settings: other proliferative diseases / organs (other than AML) that over- or exclusively present the peptide; Table 5
[3] = test system: primary AML samples; assay: HLA class I ligandome analysis (W6/32 immunoaffinity purification, LC-MS/MS) of primary AML samples; settings: AML patients (n=15)
[4] = source protein level, HLA class II
[5] = HLA class I ligandome, count for the HLA ligand (LiTAP) or, on protein lines, for the source protein (LiTAA)

Substance | Number of positive AMLs [1] | Proliferative disease and location thereof [2] | further results
511 (GQVIVAIPKLQTQQ; listed as Homo sapiens) [compound 511] | 1 | parathyroid gland, adenoma | 
496 (SDVDLIPMNDHNAYR; listed as Homo sapiens) [compound 496] | 1 | kidney, clear cell renal cell carcinoma, endometrium, adenocarcinoma | 
465 (KTEEFEVTKTAVAHRP; listed as Homo sapiens) [compound 465] | 1 | liver, hepatocellular carcinoma, cancer, lung, adenocarcinoma | 
535 (DTSYVSLKAPLT; listed as Homo sapiens) [compound 535] | 2 | liver, hepatocellular carcinoma, cancer | 
548 (LDFFGNGPPVNYK; listed as Homo sapiens) [compound 548] | 1 | lung, non-small cell lung carcinoma, bone, non- ossifying fibroma | 
CRP C-reactive protein, pentraxin-related: HLA class II ligandome-derived tumor-associated antigen (LiTAA), source protein of the peptides listed under it | 3 |  | rep. frequency in AMLs [1, 4]: 25.0%
604 (FEGQFSINKVPGNFHVS; listed as Homo sapiens) [compound 604] | 2 | kidney, clear cell renal cell carcinoma, prostate, adenocarcinoma | 
515 (WGALATISTLEAVR; listed as Homo sapiens) [compound 515] | 2 | lung, non-small cell lung carcinoma, liver, hepatocellular carcinoma | 
562 (EIQRDILLEKKKVAQDQ; listed as Homo sapiens) [compound 562] | 1 | stomach, metastatic, liver, hepatic adenoma | 
598 (SPAMAGGLFAIERE; listed as Homo sapiens) [compound 598] | 1 | stomach, adenocarcinoma, prostate, adenocarcinoma | 
472 (EKGVRTLTAAAVSGAQP; listed as Homo sapiens) [compound 472] | 1 | pancreas, adenocarcinoma, bone, giant cell tumor; of bone | 
539 (ESDTSYVSLKAPLTKPL; listed as Homo sapiens) [compound 539] | 1 | liver, hepatocellular carcinoma, cancer | 
575 (GGSAAAAAAAAASGG; listed as Homo sapiens) [compound 575] | 1 | liver, hepatocellular carcinoma, myometrium, leiomyoma | 
566 (IQRDILLEKKKVAQDQ; listed as Homo sapiens) [compound 566] | 1 | stomach, metastatic, liver, hepatic adenoma | 
504 (GAYFHDDGFLAFPG; listed as Homo sapiens) [compound 504] | 1 | pancreas, adenocarcinoma, myometrium, leiomyoma | 
544 (TEGQFVDLTGNRLTYT; listed as Homo sapiens) [compound 544] | 3 | liver, hepatocellular carcinoma, cancer, liver, focal nodular hyperplasia | 
601 (IGNIAVNHAPVSPRP; listed as Homo sapiens) [compound 601] | 3 |  | 
525 (VYVHLKNLASRPY; listed as Homo sapiens) [compound 525] | 1 | kidney, clear cell renal cell carcinoma, liver, hepatocellular carcinoma | 
571 (APPTRGPPPSYGGS; listed as Homo sapiens) [compound 571] | 1 |  | 
457 (LEEPLSLQELDTSSG; listed as Homo sapiens) [compound 457] | 2 | lymph node, non-Hodgkin's lymphoma | 
547 (DFFGNGPPVNYKTG; listed as Homo sapiens) [compound 547] | 2 | lung, non-small cell lung carcinoma, bone, non- ossifying fibroma | 
520 (DDNIKTYSDHPEK; listed as Homo sapiens) [compound 520] | 1 | kidney, clear cell renal cell carcinoma, liver, hepatocellular carcinoma | 
A1BG alpha-1-B glycoprotein: HLA class II ligandome-derived tumor-associated antigen (LiTAA), source protein of the peptides listed under it | 6 |  | identified on patients (positive/total) ([1]; HLA class II, source protein level): 6/12; rep. frequency in AMLs [1, 4]: 50%
524 (TGDKVYVHLKNLASRPY; listed as Homo sapiens) [compound 524] | 1 | kidney, clear cell renal cell carcinoma, liver, hepatocellular carcinoma | 
459 (IGRAGTVRRQAVDVSPLR; listed as Homo sapiens) [compound 459] | 1 |  | 
587 (ALPEFDGKRFQNVAKEG; listed as Homo sapiens) [compound 587] | 1 |  | 

Substance | Number of positive AMLs [1] | Proliferative disease and location thereof [2] | further results
573 (RDYGHSSSRDDYPS; listed as Homo sapiens) [compound 573] | 1 |  | 
489 (PEFDGKRFQNVAK; listed as Homo sapiens) [compound 489] | 2 |  | 
574 (SPRDDGYSTKDSY; listed as Homo sapiens) [compound 574] | 1 |  | 
461 (TVRRQAVDVSPLR; listed as Homo sapiens) [compound 461] | 1 |  | 
602 (IGNIAVNHAPVSPRPG; listed as Homo sapiens) [compound 602] | 1 |  | 
599 (FIGNIAVNHAPVSPR; listed as Homo sapiens) [compound 599] | 1 |  | 
460 (RAGTVRRQAVDVSPLR; listed as Homo sapiens) [compound 460] | 4 |  | 
585 (PEFDGKRFQNVAK; listed as Homo sapiens) [compound 585] | 1 |  | 
COL1A1 collagen, type I, alpha 1: HLA class II ligandome-derived tumor-associated antigen (LiTAA), source protein of the peptides listed under it | 3 |  | rep. frequency in AMLs [1, 4]: 25.0%
586 (PEFDGKRFQNVAKE; listed as Homo sapiens) [compound 586] | 2 |  | 
TPM4 tropomyosin 4: HLA class II ligandome-derived tumor-associated antigen (LiTAA), source protein of the peptides listed under it | 3 |  | rep. frequency in AMLs [1, 4]: 25.0%
YARS tyrosyl-tRNA synthetase: HLA class II ligandome-derived tumor-associated antigen (LiTAA), source protein of the peptides listed under it | 3 |  | rep. frequency in AMLs [1, 4]: 25.0%
488 (ALPEFDGKRFQNVAKEG; listed as Homo sapiens) [compound 488] | 1 |  | 
HSP90B1 heat shock protein 90 kDa beta (Grp94), member 1: HLA class II ligandome-derived tumor-associated antigen (LiTAA), source protein of the peptides listed under it | 4 |  | rep. frequency in AMLs [1, 4]: 33.3%
572 (GNSRSAPPTRGPPPSYGGSSRY; listed as Homo sapiens) [compound 572] | 1 |  | 
HSPG2 heparan sulfate proteoglycan 2: HLA class II ligandome-derived tumor-associated antigen (LiTAA), source protein of the peptides listed under it | 4 |  | rep. frequency in AMLs [1, 4]: 33.3%
IFI30 interferon, gamma-inducible protein 30: HLA class II ligandome-derived tumor-associated antigen (LiTAA), source protein of the peptides listed under it | 3 |  | rep. frequency in AMLs [1, 4]: 25.0%
600 (FIGNIAVNHAPVSPRPG; listed as Homo sapiens) [compound 600] | 1 |  | 
458 (AGTVRRQAVDVSPLR; listed as Homo sapiens) [compound 458] | 5 |  | 
545 (ALDFFGNGPPVNYK; listed as Homo sapiens) [compound 545] | 1 |  | 
40: peptide found in KIF2C (gene looked up) (IYNGKLFDL; listed as Homo sapiens) [compound 40] |  | stomach, metastatic, adenocarcinoma | Number of positive AMLs [3, 5]: 1
8 (RAYADEVAV; listed as Homo sapiens) [compound 8] |  | kidney, clear cell renal cell carcinoma, bone, non- ossifying fibroma | Number of positive AMLs [3, 5]: 1
295 (ILDEAHERTI; listed as Homo sapiens) [compound 295] |  | brain, cancer, lymph node, malignant melanoma | Number of positive AMLs ([3]; HLA ligand (LiTAP)): 1
156 (AAELLKHPF; listed as Homo sapiens) [compound 156] |  | prostate, adenocarcinoma | Number of positive AMLs [3, 5]: 2
287 (NFLRINTI; listed as Homo sapiens) [compound 287] |  | colon or rectum, stomach, adenocarcinoma | Number of positive AMLs ([3]; HLA ligand (LiTAP)): 1
